One molecule from paper PMC3406103 can be followed below.

No constants are given. Whether binding was seen depends on the method and setting. In cells and extracts the contact can be indirect.

This test deals with GST-p300 histone acetyltransferase. Briefly: pull-down; GST fusion proteins incubated with in vitro translated 35S-labelled HPV8 E7 and precipitated by glutathione Sepharose 4B; SDS-PAGE and autoradiography; only the target purified.

B1: HPV8 E7 protein, in vitro translated and 35S-labelled (protein, UniProt P06430 1-103)
chain: MIGKEVTVQDFVLKLSEIQPEVLPVDLLCEEELPNEQETEEELDIERTVFKIVAPCGCSCCQVKLRLFVNATDSGIRTFQELLFRDLQLLCPECRGNCKHGGS
modifications: 35S-methionine-labelled
Consider B1, for which the binding result is “no binding”.
